Paper PMC10746753 (Pharmaceutical Research, 2023)

Test system: Caco-2 cells (TC-7 clone)
Assay: Caco-2 permeability
Assay type: in vitro ADME, human
Details: presence of cyclosporine A

| Structure (SMILES) | Recovery A→B | Recovery B→A |
| --- | --- | --- |
| CC(C)NCC(O)COc1cccc2ccccc12 (stereo not shown) [Propranolol] | 92.4% | 85.6% |
| CC(C)NCC(O)COc1cccc2[nH]ccc12 (stereo not shown) [Pindolol] | 104% | 95.5% |
